Measured values: US8242058B2, “Reagents and methods for appending functional groups to proteins” (Wisconsin Alumni Research Foundation, priority 2006, dated 2012)

Columns and labels:
[1] = Immobilization on phosphinothioester-displaying chips by Staudinger ligation, immunofluorescence detection; conditions: 10 μM in 5% DMF/water
[2] = Huisgen 1,3-dipolar cycloaddition with alkynyl fluorescein 10, SDS-PAGE fluorescence imaging; conditions: Cu(I) catalyst, polytriazole ligand

Molecule: Met(−1)RNase A-Gly-NHNHCH2C(O)NHCH2CH2N3 [azido-RNase A]
- immobilization on phosphinothioester chips [1]: immobilized
- fluorescence of the protein after cycloaddition [2]: fluorescent

B1: wild-type RNase A: bovine pancreatic ribonuclease (RNase A), unmodified wild-type, Sigma Chemical (protein, UniProt P61823 27-150, looked up)
Ribonuclease pancreatic: KETAAAKFERQHMDSSTSAASSSNYCNQMMKSRNLTKDRCKPVNTFVHESLADVQAVCSQKNVACKNGQTNCYQSYSTMSITDCRETGSSKYPNCAYKTTQANKHIIVACEGNPYVPVHFDASV
- immobilization on phosphinothioester chips [1]: did not result in any detectable RNase A immobilization
- fluorescence of the protein after cycloaddition [2]: not fluorescent
